Measurements from paper doi:10.1101/605725.
No constants are given. Whether binding was seen depends on the method and setting. In cells and extracts the contact can be indirect. Some binding calls cover weakened binding; strength is not graded here.

Chains of the proteins cited; added tags and fusions are not shown. Lines headed by an entry give the natural chain unless they say otherwise; changes in a name come on top.
UniProt Q9VV73: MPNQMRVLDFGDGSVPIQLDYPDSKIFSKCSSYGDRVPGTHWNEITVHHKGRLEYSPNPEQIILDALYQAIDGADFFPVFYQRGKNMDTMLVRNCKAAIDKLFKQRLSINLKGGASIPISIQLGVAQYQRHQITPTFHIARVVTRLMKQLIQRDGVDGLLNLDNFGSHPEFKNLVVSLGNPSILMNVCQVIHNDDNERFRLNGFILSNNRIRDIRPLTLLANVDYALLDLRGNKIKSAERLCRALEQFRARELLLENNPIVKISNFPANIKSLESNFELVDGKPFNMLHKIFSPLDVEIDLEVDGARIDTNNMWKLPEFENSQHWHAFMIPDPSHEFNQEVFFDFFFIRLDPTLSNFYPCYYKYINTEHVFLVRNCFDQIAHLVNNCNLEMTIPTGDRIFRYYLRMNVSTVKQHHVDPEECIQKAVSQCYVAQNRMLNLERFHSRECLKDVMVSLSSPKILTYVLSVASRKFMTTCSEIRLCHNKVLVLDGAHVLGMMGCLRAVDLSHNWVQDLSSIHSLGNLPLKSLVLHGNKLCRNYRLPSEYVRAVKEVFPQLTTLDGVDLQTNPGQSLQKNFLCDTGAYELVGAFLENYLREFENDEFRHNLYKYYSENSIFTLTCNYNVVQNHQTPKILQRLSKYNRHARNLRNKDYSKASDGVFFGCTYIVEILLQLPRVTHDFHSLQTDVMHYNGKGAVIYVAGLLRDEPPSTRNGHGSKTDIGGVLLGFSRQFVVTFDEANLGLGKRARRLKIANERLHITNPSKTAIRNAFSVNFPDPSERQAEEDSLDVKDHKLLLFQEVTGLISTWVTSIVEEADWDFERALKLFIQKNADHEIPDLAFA

Target: T1, Piwi (Drosophila (endogenous in OSCs and ovary)) (UniProt Q9VKM1)
T1 sequence: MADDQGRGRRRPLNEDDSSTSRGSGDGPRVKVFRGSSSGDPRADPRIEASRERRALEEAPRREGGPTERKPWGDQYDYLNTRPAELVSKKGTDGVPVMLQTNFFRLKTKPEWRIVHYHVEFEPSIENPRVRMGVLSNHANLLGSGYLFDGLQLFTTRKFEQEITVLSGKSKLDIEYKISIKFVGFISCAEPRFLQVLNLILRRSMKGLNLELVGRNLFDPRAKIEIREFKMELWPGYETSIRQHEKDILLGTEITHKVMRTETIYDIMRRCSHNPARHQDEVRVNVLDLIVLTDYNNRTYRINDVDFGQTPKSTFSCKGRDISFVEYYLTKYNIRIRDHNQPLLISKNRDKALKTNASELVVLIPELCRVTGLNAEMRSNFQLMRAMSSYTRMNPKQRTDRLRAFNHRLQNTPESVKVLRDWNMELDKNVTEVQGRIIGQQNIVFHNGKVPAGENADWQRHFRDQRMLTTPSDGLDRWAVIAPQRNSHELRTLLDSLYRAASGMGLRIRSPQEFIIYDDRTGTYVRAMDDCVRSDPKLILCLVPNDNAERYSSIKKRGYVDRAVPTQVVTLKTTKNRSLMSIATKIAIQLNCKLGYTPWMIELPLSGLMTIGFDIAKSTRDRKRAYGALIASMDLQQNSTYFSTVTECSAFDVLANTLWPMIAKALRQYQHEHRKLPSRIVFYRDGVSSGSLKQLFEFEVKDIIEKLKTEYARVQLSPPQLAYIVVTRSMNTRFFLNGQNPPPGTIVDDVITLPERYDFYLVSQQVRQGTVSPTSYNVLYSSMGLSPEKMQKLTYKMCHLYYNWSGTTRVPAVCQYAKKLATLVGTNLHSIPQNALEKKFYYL
Assay: co-IP

binding: binds
Substance: Nxf2, nuclear RNA export factor (NXF) variant (from UniProt Q9VV73 1-841)
